Laboratory results: patent publication US9029602B2, “Anti-microbial and anti-static surface treatment agent with quaternary ammonium salt as active ingredient and method for preventing static electricity in polymer fibers using same” (Industry-Academic Cooperation Foundation, Yeungnam …, priority 2010, dated 2015)

How the values were obtained:
[1] = Triboelectrification of nylon 66 surface-treated with E-beam as in Example 3
[2] = Triboelectrification of silk surface-treated with E-beam as in Example 4; conditions: fiber Silk
[3] = Triboelectrification of nylon 66 surface-treated with E-beam as in Example 4; conditions: fiber Nylon
[4] = Triboelectrification (JIS L 1094) of fabric surface-treated as in Example 2 (cerium ammonium nitrate catalyst)
[5] = abrasive cloth cotton, warp thread
[6] = abrasive cloth wool, warp thread
[7] = abrasive cloth cotton, warp thread, weight ratio 50%
[8] = abrasive cloth cotton, weft, weight ratio 50%
[9] = abrasive cloth wool, warp thread, weight ratio 50%
[10] = abrasive cloth wool, weft, weight ratio 50%

Work on `C=C(C)C(=O)OCC[N+](C)(C)CC.[Br-]` [E2M] yielded a Triboelectrification ([1]; abrasive cloth cotton, warp thread, time 20 min) of 6160 V, a Triboelectrification ([1]; abrasive cloth cotton, warp thread, time 40 min) of 8750 V and a Triboelectrification ([1]; abrasive cloth cotton, warp thread, time 1 hr) of 3410 V. For the same compound, the Triboelectrification ([1]; abrasive cloth cotton, warp thread, time 2 hr) was 2780 V, the Triboelectrification ([1]; abrasive cloth cotton, warp thread, time 4 hr) was 1960 V and the Triboelectrification ([1]; abrasive cloth cotton, weft, time 20 min) was 4510 V. For the same compound, the Triboelectrification ([1]; abrasive cloth cotton, weft, time 40 min) was 8780 V, the Triboelectrification ([1]; abrasive cloth cotton, weft, time 1 hr) was 4910 V and the Triboelectrification ([1]; abrasive cloth cotton, weft, time 2 hr) was 6050 V. The Triboelectrification ([1]; abrasive cloth cotton, weft, time 4 hr) was 4640 V, the Triboelectrification ([1]; abrasive cloth wool, warp thread, time 20 min) was 8400 V and the Triboelectrification ([1]; abrasive cloth wool, warp thread, time 40 min) was 7260 V. For the same compound, the Triboelectrification ([1]; abrasive cloth wool, warp thread, time 1 hr) was 9930 V, the Triboelectrification ([1]; abrasive cloth wool, warp thread, time 2 hr) was 7860 V and the Triboelectrification ([1]; abrasive cloth wool, warp thread, time 4 hr) was 3860 V. For the same compound, the Triboelectrification ([1]; abrasive cloth wool, weft, time 20 min) was 8680 V, the Triboelectrification ([1]; abrasive cloth wool, weft, time 40 min) was 5480 V and the Triboelectrification ([1]; abrasive cloth wool, weft, time 1 hr) was 11620 V. For the same compound, the Triboelectrification ([1]; abrasive cloth wool, weft, time 2 hr) was 4000 V, the Triboelectrification ([1]; abrasive cloth wool, weft, time 4 hr) was 2690 V and the Triboelectrification [2, 5] was 10 or lower V. The Triboelectrification ([2]; abrasive cloth cotton, weft) was 10 or lower V, the Triboelectrification [2, 6] was 10 or lower V and the Triboelectrification ([2]; abrasive cloth wool, weft) was 10 or lower V. The Triboelectrification [3, 5] was 10 or lower V, the Triboelectrification ([3]; abrasive cloth cotton, weft) was 10 or lower V and the Triboelectrification [3, 6] was 10 or lower V. The Triboelectrification ([3]; abrasive cloth wool, weft) was 10 or lower V, the Triboelectrification ([4]; abrasive cloth cotton, warp thread, 50%, time 1 minute) was 80 V and the Triboelectrification ([4]; abrasive cloth cotton, warp thread, 50%, time 5 minutes) was 80 V. The Triboelectrification ([4]; abrasive cloth cotton, warp thread, 50%, time 10 minutes) was 130 V, the Triboelectrification ([4]; abrasive cloth cotton, warp thread, 50%, time 30 minutes) was 130 V and the Triboelectrification ([4]; abrasive cloth cotton, warp thread, 50%, time 60 minutes) was 120 V. The Triboelectrification [4, 7] was 80 V, the Triboelectrification ([4]; abrasive cloth cotton, weft, 50%, time 1 minute) was 70 V and the Triboelectrification ([4]; abrasive cloth cotton, weft, 50%, time 5 minutes) was 20 V. For the same compound, the Triboelectrification ([4]; abrasive cloth cotton, weft, 50%, time 10 minutes) was 70 V, the Triboelectrification ([4]; abrasive cloth cotton, weft, 50%, time 30 minutes) was 90 V and the Triboelectrification ([4]; abrasive cloth cotton, weft, 50%, time 60 minutes) was 60 V. For the same compound, the Triboelectrification [4, 8] was 70 V, the Triboelectrification ([4]; abrasive cloth wool, warp thread, 50%, time 1 minute) was 10 V and the Triboelectrification ([4]; abrasive cloth wool, warp thread, 50%, time 5 minutes) was 10 or lower V. The Triboelectrification ([4]; abrasive cloth wool, warp thread, 50%, time 10 minutes) was 60 V, the Triboelectrification ([4]; abrasive cloth wool, warp thread, 50%, time 30 minutes) was 150 V and the Triboelectrification ([4]; abrasive cloth wool, warp thread, 50%, time 60 minutes) was 130 V. For the same compound, the Triboelectrification [4, 9] was 10 V, the Triboelectrification ([4]; abrasive cloth wool, weft, 50%, time 1 minute) was 10 or lower V and the Triboelectrification ([4]; abrasive cloth wool, weft, 50%, time 5 minutes) was 10 or lower V. For the same compound, the Triboelectrification ([4]; abrasive cloth wool, weft, 50%, time 10 minutes) was 10 or lower V, the Triboelectrification ([4]; abrasive cloth wool, weft, 50%, time 30 minutes) was 70 V and the Triboelectrification ([4]; abrasive cloth wool, weft, 50%, time 60 minutes) was 110 V. The Triboelectrification [4, 10] was 10 or lower V.

Compound `C=CC[N+](CC)(CC)CC.[Br-]` [ABTEA] has a Triboelectrification ([4]; abrasive cloth cotton, warp thread, weight ratio 2%) of 3420 V, a Triboelectrification ([4]; abrasive cloth cotton, warp thread, weight ratio 5%) of 2090 V and a Triboelectrification ([4]; abrasive cloth cotton, warp thread, weight ratio 10%) of 1030 V. For the same compound, the Triboelectrification ([4]; abrasive cloth cotton, warp thread, weight ratio 25%) was 30 V, the Triboelectrification [4, 7] was 10 V and the Triboelectrification ([4]; abrasive cloth cotton, weft, weight ratio 2%) was 3380 V. It also gave a Triboelectrification ([4]; abrasive cloth cotton, weft, weight ratio 5%) of 3200 V, a Triboelectrification ([4]; abrasive cloth cotton, weft, weight ratio 10%) of 1180 V and a Triboelectrification ([4]; abrasive cloth cotton, weft, weight ratio 25%) of 50 V. The Triboelectrification [4, 8] was 10 V, the Triboelectrification ([4]; abrasive cloth wool, warp thread, weight ratio 2%) was 1620 V and the Triboelectrification ([4]; abrasive cloth wool, warp thread, weight ratio 5%) was 1220 V. The Triboelectrification ([4]; abrasive cloth wool, warp thread, weight ratio 10%) was 160 V, the Triboelectrification ([4]; abrasive cloth wool, warp thread, weight ratio 25%) was 10 V and the Triboelectrification [4, 9] was 10 V. It also gave a Triboelectrification ([4]; abrasive cloth wool, weft, weight ratio 2%) of 1860 V, a Triboelectrification ([4]; abrasive cloth wool, weft, weight ratio 5%) of 1750 V and a Triboelectrification ([4]; abrasive cloth wool, weft, weight ratio 10%) of 390 V. The Triboelectrification ([4]; abrasive cloth wool, weft, weight ratio 25%) was 20 V and the Triboelectrification [4, 10] was 0 V.

In the case of `C=CC[N+](CC)(CC)CC.[Cl-]` [ACTEA], the Triboelectrification [4, 7] is reported as 10 V, the Triboelectrification [4, 8] is reported as 10 V and the Triboelectrification [4, 9] is reported as 10 V. It also gave a Triboelectrification [4, 10] of 10 V.
